Measurements: patent US20210023129A1, “PLATINUM PRODRUG PERFLUOROARYL PEPTIDE CONJUGATES” (MASSACHUSETTS INSTITUTE OF TECHNOLOGY, priority 2019, published 2021)
At least one compound was matched to its structure with a doubt left. *1 amine or outer side, *2 acyl side, *3 side chain or, on linkers, in order; H or OH if unused. Where a SMILES comes first, the peptide text is derived from it. Bridges are numbered along the chain shown (N, C = ends). Perfluorobiphenyl(4,4') = Fc1c(F)c([*:1])c(F)c(F)c1-c1c(F)c(F)c([*:2])c(F)c1F; Suc = O=C(CCC(=O)[*:2])[*:1]

Tested on: G9 GSCs
Assay: Cellular uptake and subcellular localization of platinum by GFAAS
Type: cell-based, human
Conditions: 5 μM, 5 hours

CC[C@H](C)[C@H](NC(=O)[C@H](CCCCN)NC(=O)CNC(=O)[C@H](CC(C)C)NC(=O)[C@H](CC(C)C)NC(=O)[C@H](Cc1ccc(O)cc1)NC(=O)CNC(=O)[C@H](C)NC(=O)CCC(=O)O)C(=O)N[C@@H](CC(N)=O)C(=O)N[C@@H](CC(C)C)C(=O)N[C@@H](CCCCN)C(=O)N[C@@H](C)C(=O)N[C@H]1CSc2c(F)c(F)c(c(F)c2F)-c2c(F)c(F)c(c(F)c2F)SC[C@@H](C(=O)N[C@@H](CC(C)C)C(N)=O)NC(=O)[C@H](CCCCN)NC(=O)[C@H](CCCCN)NC(=O)[C@H](C)NC(=O)[C@H](CC(C)C)NC(=O)[C@H](C)NC(=O)[C@H](C)NC1=O [PtIV-M13] (Suc-AGYLLGKINLKACAALAKKCL-NH2; linker 13-20 via Perfluorobiphenyl(4,4'))
amount of platinum in the cells (whole cell) compared with cisplatin (GFAAS): six times greater
subcellular distribution of platinum (fractionated cellular components): Most of the platinum from PtIV-M13 is present in the cytosol
amount of nuclear platinum, compared with cisplatin (nuclear fraction): relatively similar
